Results are given in words; binding and its absence hold for the method and conditions named. Some results given as binding are weak or reduced against the parent protein; the word gives no strength.
Target: recombinant mouse LOX-1 Fc protein (mouse) (UniProt Q9EQ09)
Assay: AlphaScreen competition, antibody titrated against Bio-oxLDL=0.5ug/ml and mFc-mLOX-1=0.3ug/ml

Amino acid sequences for entries named in this document (tags omitted). Residues count along the entry.
UniProt Q9EQ09, residues 55-363: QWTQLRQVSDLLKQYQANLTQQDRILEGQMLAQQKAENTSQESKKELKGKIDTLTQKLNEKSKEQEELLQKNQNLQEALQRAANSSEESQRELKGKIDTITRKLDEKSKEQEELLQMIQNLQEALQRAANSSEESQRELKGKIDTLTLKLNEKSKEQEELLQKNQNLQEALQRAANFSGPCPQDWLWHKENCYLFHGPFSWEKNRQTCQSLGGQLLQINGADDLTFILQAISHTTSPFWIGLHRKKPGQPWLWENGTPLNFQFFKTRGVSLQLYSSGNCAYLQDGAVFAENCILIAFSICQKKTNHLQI

binding: binds
B1: LOX1-11A2 (antibody, V domains shown)
VH: EEQLVESGGGLVQPGGSLKLSCLASGFTLSNYGMNWIRQAPGKGLEWVASISSSSSYFYYADTVKGRFTISREDAKNTLNLQMTSLRSEDTALYYCARGITIAAGFTMDAWGQGTSVTVSS
VL: DIQMTQSPTSLSASLGETVSIECRASEDIYNNLAWYQQKSGKSPQLLIYYASTLQDGVPSRFSGSGSGTQFSLKISGMQPEDEGLYYCLQGSKYPRTFGGGTKLELKR
